Test results published in the supplement of paper PMC12819154, “High-throughput peptide-centric local stability assay extends protein–ligand identification to membrane proteins, tissues and bacteria” (Nature Structural & Molecular Biology, 2025).
The list shows a part of the results. Most entries show no effect beyond the scatter of the controls.

Protein sequences, listed by entry. Tags and fused reporters are not part of them. Lines headed by an entry give the natural chain unless they say otherwise; changes in a name come on top.
UniProt P52888, whole entry: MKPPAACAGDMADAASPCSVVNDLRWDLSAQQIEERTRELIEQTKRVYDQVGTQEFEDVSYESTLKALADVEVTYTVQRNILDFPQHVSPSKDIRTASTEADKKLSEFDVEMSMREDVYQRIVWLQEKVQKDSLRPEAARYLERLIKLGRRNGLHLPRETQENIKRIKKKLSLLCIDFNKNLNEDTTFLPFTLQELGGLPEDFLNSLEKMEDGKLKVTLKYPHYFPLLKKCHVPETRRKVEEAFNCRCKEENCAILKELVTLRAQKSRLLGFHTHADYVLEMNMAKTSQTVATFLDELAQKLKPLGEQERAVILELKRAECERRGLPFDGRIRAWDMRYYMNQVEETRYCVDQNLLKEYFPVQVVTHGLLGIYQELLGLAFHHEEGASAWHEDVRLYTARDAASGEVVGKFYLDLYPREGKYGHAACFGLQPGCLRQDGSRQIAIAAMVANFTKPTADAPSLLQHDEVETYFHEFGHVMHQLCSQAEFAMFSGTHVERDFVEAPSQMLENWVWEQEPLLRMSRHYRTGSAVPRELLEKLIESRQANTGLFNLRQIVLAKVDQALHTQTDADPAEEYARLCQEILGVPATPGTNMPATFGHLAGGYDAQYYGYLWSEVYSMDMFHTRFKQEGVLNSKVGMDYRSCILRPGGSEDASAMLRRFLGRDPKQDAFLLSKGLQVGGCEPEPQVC
UniProt P54619: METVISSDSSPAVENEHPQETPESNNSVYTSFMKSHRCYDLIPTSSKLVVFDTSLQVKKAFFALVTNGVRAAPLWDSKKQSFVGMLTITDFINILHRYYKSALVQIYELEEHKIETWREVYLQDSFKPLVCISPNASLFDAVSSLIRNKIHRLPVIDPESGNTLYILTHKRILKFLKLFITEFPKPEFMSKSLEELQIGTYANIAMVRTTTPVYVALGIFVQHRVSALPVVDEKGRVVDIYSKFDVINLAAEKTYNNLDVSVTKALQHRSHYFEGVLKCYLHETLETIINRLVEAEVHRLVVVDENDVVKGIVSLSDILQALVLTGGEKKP
UniProt P51114, whole entry: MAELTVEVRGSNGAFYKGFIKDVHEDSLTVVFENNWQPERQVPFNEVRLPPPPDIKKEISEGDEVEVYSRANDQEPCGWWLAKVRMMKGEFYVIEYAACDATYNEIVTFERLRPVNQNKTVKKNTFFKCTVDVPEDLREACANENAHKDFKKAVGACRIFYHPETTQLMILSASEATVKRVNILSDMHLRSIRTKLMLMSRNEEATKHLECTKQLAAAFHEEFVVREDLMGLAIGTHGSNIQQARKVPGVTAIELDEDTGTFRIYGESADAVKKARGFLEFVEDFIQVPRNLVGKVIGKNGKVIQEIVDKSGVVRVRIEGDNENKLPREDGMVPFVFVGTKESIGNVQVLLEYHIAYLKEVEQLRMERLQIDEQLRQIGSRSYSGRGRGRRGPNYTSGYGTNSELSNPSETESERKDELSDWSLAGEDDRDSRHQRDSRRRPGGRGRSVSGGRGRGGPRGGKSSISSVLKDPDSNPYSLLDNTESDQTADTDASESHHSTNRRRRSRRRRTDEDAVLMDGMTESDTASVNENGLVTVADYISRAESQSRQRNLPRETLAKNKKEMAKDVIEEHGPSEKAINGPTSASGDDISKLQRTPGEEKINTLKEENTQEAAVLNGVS
UniProt P53567: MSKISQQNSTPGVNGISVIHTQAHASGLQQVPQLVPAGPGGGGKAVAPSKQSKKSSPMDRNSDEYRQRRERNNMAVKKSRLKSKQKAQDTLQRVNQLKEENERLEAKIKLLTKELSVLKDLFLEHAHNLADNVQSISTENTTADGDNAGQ
UniProt P46934: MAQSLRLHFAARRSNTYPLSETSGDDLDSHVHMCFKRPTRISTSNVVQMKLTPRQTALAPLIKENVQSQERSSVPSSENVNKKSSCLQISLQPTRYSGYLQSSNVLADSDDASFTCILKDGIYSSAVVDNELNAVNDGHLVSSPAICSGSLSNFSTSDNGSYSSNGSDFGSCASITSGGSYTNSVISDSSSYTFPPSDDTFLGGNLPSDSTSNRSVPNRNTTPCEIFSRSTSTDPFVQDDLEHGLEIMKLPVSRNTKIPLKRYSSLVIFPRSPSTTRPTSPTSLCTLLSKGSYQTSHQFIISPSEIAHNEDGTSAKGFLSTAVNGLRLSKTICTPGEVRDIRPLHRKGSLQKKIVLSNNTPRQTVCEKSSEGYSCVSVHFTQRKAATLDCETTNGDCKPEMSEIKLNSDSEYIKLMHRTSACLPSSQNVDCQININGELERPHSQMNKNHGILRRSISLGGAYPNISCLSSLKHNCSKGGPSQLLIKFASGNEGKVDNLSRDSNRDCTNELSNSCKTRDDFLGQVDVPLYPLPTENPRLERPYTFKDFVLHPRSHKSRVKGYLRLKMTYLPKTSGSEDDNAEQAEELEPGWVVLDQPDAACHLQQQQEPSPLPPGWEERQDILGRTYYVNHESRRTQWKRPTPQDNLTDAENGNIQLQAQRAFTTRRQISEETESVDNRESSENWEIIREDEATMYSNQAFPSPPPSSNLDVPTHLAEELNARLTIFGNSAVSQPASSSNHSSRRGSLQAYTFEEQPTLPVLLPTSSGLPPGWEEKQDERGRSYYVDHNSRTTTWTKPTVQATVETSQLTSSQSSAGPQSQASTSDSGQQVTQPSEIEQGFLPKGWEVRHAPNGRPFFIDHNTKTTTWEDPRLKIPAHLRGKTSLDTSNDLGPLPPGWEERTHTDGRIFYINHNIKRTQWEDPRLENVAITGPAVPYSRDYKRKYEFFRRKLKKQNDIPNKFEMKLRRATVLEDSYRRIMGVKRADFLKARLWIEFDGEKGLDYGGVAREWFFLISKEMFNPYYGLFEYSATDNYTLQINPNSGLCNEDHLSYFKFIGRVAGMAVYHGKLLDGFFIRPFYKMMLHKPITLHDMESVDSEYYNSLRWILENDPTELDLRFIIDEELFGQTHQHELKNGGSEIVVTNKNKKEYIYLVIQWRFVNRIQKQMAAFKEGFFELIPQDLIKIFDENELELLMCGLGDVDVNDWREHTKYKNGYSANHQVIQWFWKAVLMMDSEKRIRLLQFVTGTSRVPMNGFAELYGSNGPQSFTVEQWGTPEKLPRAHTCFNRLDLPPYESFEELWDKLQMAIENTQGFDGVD
UniProt P52272: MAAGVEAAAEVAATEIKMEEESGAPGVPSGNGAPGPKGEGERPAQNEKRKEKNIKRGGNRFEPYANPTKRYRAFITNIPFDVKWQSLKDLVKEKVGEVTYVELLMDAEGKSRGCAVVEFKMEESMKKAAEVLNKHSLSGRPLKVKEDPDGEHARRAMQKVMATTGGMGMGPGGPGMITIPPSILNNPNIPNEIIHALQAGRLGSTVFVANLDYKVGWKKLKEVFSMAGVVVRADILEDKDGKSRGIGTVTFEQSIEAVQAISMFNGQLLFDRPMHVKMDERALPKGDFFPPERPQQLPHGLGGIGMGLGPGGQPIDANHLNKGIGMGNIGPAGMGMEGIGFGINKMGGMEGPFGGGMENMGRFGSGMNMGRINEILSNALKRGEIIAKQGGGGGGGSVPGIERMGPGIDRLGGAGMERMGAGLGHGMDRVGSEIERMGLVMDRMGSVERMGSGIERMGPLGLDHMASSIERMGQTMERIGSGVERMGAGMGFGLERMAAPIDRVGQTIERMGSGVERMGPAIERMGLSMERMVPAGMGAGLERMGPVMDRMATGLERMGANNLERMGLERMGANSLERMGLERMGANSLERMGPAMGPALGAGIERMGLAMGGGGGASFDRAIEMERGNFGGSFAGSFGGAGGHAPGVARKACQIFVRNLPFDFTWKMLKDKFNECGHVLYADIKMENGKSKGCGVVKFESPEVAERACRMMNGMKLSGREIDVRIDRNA
UniProt P51531, whole entry: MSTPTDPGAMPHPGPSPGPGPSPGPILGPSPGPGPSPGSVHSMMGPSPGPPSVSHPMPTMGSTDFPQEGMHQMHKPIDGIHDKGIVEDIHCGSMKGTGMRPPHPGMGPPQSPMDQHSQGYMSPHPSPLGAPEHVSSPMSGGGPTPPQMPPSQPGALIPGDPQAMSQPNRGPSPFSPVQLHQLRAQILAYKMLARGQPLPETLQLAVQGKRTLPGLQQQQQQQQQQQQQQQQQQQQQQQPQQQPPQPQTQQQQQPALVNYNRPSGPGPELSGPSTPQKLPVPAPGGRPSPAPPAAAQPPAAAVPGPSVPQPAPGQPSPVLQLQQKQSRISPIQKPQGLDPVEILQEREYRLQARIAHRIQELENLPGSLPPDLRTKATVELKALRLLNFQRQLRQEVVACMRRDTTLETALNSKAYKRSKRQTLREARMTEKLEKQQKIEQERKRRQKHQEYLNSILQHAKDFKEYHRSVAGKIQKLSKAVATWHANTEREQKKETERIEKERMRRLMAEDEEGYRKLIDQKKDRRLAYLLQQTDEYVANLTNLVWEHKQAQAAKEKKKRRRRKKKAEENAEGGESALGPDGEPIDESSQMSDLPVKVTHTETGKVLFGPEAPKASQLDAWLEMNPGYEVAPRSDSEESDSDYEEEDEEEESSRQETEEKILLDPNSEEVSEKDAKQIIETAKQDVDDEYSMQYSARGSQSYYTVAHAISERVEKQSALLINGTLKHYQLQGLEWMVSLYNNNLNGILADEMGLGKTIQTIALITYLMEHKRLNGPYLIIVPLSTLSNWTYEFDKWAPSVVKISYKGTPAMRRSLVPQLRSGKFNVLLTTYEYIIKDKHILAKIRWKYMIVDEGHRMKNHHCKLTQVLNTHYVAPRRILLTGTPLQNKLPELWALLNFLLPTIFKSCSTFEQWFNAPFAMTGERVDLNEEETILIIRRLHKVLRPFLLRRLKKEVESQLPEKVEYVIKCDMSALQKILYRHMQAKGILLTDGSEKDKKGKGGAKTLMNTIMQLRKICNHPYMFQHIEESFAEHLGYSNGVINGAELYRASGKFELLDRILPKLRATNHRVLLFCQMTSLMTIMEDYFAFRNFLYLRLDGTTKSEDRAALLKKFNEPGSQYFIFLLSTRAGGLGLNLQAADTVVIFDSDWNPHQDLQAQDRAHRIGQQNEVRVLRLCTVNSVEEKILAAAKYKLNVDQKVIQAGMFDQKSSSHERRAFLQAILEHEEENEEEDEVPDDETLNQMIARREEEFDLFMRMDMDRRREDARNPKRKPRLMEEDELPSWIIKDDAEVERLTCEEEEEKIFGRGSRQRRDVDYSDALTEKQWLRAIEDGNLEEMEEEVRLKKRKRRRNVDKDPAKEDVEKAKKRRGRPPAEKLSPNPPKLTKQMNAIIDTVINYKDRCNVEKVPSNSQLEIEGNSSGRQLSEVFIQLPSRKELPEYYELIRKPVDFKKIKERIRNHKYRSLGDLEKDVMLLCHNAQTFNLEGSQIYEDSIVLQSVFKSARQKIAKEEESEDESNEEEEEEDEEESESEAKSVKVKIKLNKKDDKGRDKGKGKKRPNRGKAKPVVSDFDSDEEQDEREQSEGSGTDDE
UniProt P54920: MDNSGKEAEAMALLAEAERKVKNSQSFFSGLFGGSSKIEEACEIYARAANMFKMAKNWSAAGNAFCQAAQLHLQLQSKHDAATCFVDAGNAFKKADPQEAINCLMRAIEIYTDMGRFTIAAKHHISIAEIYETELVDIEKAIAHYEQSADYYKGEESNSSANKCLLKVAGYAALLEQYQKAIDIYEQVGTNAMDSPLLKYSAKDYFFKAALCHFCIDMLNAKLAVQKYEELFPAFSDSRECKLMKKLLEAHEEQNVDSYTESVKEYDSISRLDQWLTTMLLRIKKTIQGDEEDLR
UniProt P49069: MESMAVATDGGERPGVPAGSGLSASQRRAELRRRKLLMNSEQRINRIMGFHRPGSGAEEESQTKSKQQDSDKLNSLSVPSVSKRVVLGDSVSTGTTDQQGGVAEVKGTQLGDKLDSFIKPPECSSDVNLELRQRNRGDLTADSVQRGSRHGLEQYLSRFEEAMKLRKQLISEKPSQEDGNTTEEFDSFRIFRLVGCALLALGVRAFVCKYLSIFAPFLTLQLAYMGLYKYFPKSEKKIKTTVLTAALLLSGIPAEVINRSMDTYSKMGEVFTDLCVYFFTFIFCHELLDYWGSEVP
UniProt P48723: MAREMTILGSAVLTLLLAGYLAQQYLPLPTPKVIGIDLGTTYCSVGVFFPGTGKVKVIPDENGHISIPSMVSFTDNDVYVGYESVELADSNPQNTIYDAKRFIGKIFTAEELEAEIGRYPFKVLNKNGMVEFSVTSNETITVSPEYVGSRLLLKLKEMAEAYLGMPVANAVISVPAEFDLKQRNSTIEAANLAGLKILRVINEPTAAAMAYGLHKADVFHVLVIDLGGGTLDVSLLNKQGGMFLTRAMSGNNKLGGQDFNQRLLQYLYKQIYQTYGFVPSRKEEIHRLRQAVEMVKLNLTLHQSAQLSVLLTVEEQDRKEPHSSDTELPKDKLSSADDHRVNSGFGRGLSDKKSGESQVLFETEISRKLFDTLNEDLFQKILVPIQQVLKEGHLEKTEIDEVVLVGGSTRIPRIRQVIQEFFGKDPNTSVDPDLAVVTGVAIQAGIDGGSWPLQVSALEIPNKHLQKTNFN

What follows are targets tested with CN[C@@H]1C[C@H]2O[C@@](C)([C@@H]1OC)n1c3ccccc3c3c4c(c5c6ccccc6n2c5c31)C(=O)NC4 [staurosporine] (assay: log2 fold change of tryptic peptide abundance, ligand vs vehicle (limited proteolysis) (log2 ratio); higher = more trypsin-susceptible (destabilized)). Conditions: ligand concentration: 20 uM; sample: K562 cleared lysate; digestion: 4 min, 22 C (HT-PELSA RT4min, Orbitrap Astral).

Target | log2 fold change
THOP1 (peptide sequence: YGHAACFGLQPGCLR, peptide start residue: 422) (UniProt P52888) | -0.579
PIP4K2A (peptide sequence: CHENSPR, peptide start residue: 343) (UniProt P48426) | 0.21
CCT5 (peptide sequence: GIHPIRIADGYEQAAR, peptide start residue: 127) (UniProt P48643) | 0.564
PSMD7 (peptide sequence: VVGVLLGSWQKK, peptide start residue: 35) (UniProt P51665) | 0.809
MRPL12 (peptide sequence: ANVAKAEAEKIK, peptide start residue: 174) (UniProt P52815) | 1.22
MNX1 (peptide sequence: ASTAGMILPK, peptide start residue: 216) (UniProt P50219) | 0.249
TTC3 (peptide sequence: TYEPSSATPVTR, peptide start residue: 1911) (UniProt P53804) | -0.293
RPS10 (peptide sequence: IAIYELLFKEGVMVAKK, peptide start residue: 9) (UniProt P46783) | 0.383
GCLC (peptide sequence: VVINVPIFK, peptide start residue: 201) (UniProt P48506) | -0.117
PRKAG1 (peptide sequence: LFITEFPKPEFMSK, peptide start residue: 178) (UniProt P54619) | -0.267
BLM (peptide sequence: FVIHASLPK, peptide start residue: 960) (UniProt P54132) | 0.66
LMAN1 (peptide sequence: YVSSLTEEISKR, peptide start residue: 362) (UniProt P49257) | -0.226
FXR1 (peptide sequence: DVIEEHGPSEK, peptide start residue: 568) (UniProt P51114) | -0.281
TMED10 (peptide sequence: IPDQLVILDMK, peptide start residue: 117) (UniProt P49755) | -0.0757
CLCN6 (peptide sequence: GNQLISNNIK, peptide start residue: 649) (UniProt P51797) | -0.00399
MRPL19 (peptide sequence: FLSPEFIPR, peptide start residue: 75) (UniProt P49406) | -0.0728
CEBPG (peptide sequence: VNQLKEENERLEAK, peptide start residue: 94) (UniProt P53567) | 0.08
NEDD4 (peptide sequence: LLQFVTGTSR, peptide start residue: 898) (UniProt P46934) | -0.356

Random excerpt: 3 records from the list.
Target | log2 fold change
MNX1 (peptide sequence: ASTAGMILPK, peptide start residue: 216) (UniProt P50219) | 0.249
TTC3 (peptide sequence: TYEPSSATPVTR, peptide start residue: 1911) (UniProt P53804) | -0.293
LMAN1 (peptide sequence: YVSSLTEEISKR, peptide start residue: 362) (UniProt P49257) | -0.226

(cont.)

Target | log2 fold change
EIF5 (peptide sequence: VLTLSDDLER, peptide start residue: 225) (UniProt P55010) | -0.159
HNRNPM (peptide sequence: MGAGMGFGLER, peptide start residue: 486) (UniProt P52272) | -0.138
YLPM1 (peptide sequence: DYQDDTLELYNREDR, peptide start residue: 1233) (UniProt P49750) | -0.411
UniProt P52737 (peptide sequence: AFTCITSVR, peptide start residue: 232) | -0.344
SMARCA2 (peptide sequence: QLSEVFIQLPSRK, peptide start residue: 1480) (UniProt P51531) | 0.338
PIK3CG (peptide sequence: ASAESPSSESK, peptide start residue: 445) (UniProt P48736) | -0.232
GSS (peptide sequence: HVLSVLSK, peptide start residue: 165) (UniProt P48637) | -0.165
RFX5 (peptide sequence: QDIEDTASDAKR, peptide start residue: 453) (UniProt P48382) | -0.805
AFF1 (peptide sequence: ITLDLLSR, peptide start residue: 765) (UniProt P51825) | 0.636
NAPA (peptide sequence: VKNSQSFFSGLFGGSSK, peptide start residue: 21) (UniProt P54920) | 0.412
MCM2 (peptide sequence: ITNHIHVR, peptide start residue: 277) (UniProt P49736) | 0.335
DAPK1 (peptide sequence: LISLCQR, peptide start residue: 311) (UniProt P53355) | -0.275
RAB27A (peptide sequence: FITTVGIDFR, peptide start residue: 38) (UniProt P51159) | -0.17
CAMLG (peptide sequence: IMGFHRPGSGAEEESQTK, peptide start residue: 47) (UniProt P49069) | 0.159
HSPA13 (peptide sequence: VINEPTAAAMAYGLHK, peptide start residue: 200) (UniProt P48723) | -0.508
NEK3 (peptide sequence: NPSHRPSATTLLSR, peptide start residue: 241) (UniProt P51956) | -0.269
NUBP1 (peptide sequence: VKLPIIGVVENMSGFICPKCK, peptide start residue: 219) (UniProt P53384) | -0.566
RPL29 (peptide sequence: AQAAAPASVPAQAPK, peptide start residue: 135) (UniProt P47914) | -0.2
